Data on 40 targets can be found in the supplement of paper PMC10849652.

Amino acid sequences for entries named in this document (tags omitted). A change or cut given only in a name is not applied to a line headed by its entry.
UniProt Q8WVT3: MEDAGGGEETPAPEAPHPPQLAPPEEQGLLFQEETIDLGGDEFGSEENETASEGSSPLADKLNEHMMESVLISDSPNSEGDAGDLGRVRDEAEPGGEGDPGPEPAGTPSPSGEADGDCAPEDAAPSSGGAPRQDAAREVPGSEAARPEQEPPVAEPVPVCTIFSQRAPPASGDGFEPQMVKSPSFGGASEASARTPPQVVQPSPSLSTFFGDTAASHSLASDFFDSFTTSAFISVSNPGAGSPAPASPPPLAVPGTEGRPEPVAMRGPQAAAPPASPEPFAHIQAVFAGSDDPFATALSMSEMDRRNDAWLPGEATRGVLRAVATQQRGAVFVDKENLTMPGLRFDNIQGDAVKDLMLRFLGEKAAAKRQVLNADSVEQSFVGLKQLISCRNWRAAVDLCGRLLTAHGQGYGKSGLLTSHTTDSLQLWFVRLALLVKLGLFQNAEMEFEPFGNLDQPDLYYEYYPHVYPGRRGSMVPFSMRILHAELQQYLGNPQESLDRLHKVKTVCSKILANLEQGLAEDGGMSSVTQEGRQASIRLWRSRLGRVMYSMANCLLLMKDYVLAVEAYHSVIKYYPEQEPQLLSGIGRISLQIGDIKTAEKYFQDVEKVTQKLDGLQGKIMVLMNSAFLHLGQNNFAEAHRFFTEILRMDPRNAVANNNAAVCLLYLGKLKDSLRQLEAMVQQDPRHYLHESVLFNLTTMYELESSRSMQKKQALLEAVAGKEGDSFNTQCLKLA
UniProt Q92574: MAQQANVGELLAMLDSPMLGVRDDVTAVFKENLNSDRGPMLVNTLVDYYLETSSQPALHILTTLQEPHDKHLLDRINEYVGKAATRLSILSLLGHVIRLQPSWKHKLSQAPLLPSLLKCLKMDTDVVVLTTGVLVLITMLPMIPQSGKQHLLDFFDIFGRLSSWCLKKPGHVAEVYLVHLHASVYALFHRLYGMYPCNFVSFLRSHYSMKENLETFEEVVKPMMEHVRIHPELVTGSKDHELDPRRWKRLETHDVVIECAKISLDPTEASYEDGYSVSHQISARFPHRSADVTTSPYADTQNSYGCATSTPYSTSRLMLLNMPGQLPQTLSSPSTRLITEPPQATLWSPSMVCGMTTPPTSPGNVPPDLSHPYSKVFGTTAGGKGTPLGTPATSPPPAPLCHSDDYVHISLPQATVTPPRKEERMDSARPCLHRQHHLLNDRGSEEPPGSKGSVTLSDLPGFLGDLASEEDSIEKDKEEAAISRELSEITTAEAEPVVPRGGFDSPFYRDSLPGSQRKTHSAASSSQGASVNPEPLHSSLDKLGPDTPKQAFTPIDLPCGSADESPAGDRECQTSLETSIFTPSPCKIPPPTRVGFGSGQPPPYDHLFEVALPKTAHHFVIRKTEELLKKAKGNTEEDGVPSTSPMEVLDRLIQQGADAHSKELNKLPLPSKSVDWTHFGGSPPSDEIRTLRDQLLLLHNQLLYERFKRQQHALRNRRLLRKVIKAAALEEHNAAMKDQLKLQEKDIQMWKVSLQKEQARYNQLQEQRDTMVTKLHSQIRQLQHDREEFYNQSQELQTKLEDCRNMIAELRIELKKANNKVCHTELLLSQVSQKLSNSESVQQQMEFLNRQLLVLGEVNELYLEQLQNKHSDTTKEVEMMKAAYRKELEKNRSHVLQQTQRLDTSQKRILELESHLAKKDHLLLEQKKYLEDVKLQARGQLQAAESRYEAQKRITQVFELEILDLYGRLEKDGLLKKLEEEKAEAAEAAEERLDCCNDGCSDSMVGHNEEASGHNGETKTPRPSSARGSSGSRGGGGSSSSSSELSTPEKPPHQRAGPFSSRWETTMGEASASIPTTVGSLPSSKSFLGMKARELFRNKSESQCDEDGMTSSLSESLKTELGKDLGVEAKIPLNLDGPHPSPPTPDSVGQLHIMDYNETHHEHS
UniProt Q5BVD1: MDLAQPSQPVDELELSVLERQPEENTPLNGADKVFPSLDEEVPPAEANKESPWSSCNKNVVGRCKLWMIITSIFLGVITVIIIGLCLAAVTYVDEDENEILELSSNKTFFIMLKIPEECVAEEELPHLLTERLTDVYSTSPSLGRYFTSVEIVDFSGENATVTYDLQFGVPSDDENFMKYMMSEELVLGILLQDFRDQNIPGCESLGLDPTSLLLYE
UniProt Q6NXR4: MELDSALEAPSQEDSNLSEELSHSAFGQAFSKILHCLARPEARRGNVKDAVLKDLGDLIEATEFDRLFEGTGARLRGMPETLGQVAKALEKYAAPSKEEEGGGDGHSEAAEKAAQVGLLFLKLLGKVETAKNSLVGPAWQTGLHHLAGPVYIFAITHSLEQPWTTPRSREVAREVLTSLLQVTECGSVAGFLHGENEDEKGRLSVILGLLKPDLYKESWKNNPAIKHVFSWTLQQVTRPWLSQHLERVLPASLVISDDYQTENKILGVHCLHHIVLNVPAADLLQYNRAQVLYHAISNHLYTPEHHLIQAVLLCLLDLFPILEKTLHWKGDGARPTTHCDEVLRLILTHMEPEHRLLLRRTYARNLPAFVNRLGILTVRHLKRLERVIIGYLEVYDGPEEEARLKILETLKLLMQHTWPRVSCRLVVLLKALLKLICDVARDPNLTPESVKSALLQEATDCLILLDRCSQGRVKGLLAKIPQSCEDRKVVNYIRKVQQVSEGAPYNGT
UniProt Q15642: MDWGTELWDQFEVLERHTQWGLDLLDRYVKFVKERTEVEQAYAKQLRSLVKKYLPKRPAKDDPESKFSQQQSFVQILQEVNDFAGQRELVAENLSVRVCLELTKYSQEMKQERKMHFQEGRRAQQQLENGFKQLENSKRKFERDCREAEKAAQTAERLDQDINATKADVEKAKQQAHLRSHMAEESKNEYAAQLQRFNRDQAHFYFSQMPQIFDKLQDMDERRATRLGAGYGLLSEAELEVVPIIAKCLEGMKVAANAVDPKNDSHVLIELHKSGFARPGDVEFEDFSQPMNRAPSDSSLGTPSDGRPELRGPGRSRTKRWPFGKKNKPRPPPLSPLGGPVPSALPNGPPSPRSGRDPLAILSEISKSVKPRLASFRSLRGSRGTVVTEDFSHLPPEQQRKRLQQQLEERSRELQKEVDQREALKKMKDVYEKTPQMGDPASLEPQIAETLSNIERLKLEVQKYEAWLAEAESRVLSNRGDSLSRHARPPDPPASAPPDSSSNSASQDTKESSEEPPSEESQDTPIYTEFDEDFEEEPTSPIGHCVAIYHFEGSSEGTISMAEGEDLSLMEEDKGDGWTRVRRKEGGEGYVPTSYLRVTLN
UniProt Q9BQ61: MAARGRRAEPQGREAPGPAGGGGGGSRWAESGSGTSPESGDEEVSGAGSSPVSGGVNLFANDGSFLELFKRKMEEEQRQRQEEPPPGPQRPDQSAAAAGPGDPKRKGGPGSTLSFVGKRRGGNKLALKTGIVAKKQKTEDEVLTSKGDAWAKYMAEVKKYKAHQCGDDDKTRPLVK
UniProt Q8WWH5: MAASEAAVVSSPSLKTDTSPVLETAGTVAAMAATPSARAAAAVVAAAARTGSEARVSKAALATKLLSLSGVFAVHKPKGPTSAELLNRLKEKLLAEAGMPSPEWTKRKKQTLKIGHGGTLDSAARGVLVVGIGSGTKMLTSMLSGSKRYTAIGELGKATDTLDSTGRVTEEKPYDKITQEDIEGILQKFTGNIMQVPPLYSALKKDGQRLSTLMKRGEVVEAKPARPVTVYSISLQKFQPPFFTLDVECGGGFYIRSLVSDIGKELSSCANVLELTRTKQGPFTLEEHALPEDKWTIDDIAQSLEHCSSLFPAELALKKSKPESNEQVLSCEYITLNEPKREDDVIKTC
UniProt Q96FX7: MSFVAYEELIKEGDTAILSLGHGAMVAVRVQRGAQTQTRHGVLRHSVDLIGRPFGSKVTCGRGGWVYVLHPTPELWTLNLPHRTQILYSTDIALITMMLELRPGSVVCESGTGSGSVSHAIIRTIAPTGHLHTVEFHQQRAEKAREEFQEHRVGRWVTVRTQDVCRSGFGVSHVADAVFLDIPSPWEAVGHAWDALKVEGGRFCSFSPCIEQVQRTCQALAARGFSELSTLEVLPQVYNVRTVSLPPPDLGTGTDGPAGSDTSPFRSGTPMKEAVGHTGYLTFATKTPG
UniProt Q13114: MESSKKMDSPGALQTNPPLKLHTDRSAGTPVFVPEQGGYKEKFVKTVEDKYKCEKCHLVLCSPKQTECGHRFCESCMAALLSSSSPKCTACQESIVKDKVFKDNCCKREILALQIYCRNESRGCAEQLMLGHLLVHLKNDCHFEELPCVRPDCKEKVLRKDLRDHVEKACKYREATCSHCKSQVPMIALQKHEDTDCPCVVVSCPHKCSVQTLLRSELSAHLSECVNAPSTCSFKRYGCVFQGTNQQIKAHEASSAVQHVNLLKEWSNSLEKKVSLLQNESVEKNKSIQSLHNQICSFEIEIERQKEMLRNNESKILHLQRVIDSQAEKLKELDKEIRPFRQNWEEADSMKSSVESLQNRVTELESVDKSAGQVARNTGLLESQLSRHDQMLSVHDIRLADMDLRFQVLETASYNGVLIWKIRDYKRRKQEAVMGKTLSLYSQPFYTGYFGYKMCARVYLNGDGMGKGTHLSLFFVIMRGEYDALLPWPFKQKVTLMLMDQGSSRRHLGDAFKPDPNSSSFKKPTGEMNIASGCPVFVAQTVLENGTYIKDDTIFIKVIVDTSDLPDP
UniProt Q8WW01: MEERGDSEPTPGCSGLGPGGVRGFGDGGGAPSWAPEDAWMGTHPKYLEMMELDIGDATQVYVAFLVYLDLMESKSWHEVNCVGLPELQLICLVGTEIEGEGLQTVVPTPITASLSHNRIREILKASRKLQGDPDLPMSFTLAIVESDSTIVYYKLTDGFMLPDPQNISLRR
UniProt O75648: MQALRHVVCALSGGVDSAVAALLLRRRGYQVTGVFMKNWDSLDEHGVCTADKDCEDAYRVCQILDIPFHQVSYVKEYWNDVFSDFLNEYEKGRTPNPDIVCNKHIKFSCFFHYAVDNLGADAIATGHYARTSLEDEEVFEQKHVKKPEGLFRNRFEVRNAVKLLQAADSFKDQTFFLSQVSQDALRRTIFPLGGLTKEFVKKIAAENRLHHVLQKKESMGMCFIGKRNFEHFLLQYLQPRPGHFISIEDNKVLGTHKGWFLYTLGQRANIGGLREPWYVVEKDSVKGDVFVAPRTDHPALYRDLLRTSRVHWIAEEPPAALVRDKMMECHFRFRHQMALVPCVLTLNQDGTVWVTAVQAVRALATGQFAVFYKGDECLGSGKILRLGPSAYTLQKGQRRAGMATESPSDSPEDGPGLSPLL
UniProt O95857: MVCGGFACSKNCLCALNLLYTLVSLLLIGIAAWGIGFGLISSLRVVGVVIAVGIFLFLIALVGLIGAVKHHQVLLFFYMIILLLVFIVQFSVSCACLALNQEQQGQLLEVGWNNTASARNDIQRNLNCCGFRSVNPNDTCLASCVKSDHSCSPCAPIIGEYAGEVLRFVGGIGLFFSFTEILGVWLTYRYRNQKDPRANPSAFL
UniProt Q9Y296, whole entry, looked up: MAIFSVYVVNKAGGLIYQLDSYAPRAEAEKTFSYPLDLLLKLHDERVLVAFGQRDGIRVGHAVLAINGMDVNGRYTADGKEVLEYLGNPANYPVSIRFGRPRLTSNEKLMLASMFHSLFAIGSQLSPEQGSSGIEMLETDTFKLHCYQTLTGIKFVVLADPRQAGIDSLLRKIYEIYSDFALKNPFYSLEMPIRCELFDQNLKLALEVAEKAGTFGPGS
UniProt Q9H892: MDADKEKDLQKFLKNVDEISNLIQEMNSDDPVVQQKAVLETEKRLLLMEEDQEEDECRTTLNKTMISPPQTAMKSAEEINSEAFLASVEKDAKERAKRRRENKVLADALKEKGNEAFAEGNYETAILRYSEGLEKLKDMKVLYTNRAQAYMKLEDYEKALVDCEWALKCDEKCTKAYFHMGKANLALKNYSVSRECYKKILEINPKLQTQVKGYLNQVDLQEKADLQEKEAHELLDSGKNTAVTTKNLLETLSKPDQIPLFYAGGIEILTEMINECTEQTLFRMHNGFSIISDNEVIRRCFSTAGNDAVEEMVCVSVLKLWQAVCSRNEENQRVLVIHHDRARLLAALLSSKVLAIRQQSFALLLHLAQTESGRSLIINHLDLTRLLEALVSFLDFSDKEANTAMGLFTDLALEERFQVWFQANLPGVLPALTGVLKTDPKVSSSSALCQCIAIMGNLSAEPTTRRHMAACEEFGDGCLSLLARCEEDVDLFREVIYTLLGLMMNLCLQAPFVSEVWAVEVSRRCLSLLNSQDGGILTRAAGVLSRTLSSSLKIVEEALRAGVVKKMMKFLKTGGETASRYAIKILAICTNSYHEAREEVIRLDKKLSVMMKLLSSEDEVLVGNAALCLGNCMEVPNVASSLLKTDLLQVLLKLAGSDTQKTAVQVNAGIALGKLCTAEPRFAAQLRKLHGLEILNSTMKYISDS
UniProt Q15631: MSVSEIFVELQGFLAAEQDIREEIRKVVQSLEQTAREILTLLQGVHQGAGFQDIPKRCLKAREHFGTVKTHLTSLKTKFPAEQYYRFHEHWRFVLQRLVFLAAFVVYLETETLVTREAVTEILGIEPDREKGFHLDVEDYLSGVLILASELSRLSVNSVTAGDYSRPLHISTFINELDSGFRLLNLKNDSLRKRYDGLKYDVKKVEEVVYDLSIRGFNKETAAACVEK

This is one part of the list.

Compound in one test: C1=CC=C(C=C1)C2=NC(=C(N2)C3=CC=NC=C3)C4=CC(=C(C=C4)Cl)O
In words: log2 fold change, soluble protein after heating vs DMSO (PISA); higher = thermal stabilisation; K562 lysate, 10 uM; active = over 0.2 and 3.5 SD of the protein, either way, in both replicates (recomputed). A digest of the protocol:
(§1)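 Pellets of K562 cells were dounce-homogenised in PBS pH 7.4 with 1 mM MgCl2, and the crude extract was held at 1 mg/mL protein for a 30 min treatment with 10 μM compound. Aliquots were heated for 3 min over 48°C-58°C and pooled before NP-40 was added to 0.5% at 4°C. The supernatant from 21,000xg for 90 min was quantified by TMTpro 16plex LC-MS/MS with channel sums equalised. Values are reported from duplicates as log-two fold change in thermal stability relative to solvent controls.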
Consider TRAPPC12 (UniProt Q8WVT3), for which the log2 fold change is inactive: -0.005.

As for TSC1 (UniProt Q92574), the log2 fold change was inactive: -0.026.

As to TTMP isoform 3 (UniProt Q5BVD1), the log2 fold change is inactive: -0.026.

In the case of TTI2 (UniProt Q6NXR4), the log2 fold change was inactive: 0.012.

Consider TRRAP (UniProt Q9Y4A5), for which the log2 fold change was inactive: 0.008.

On to TRIP10 isoform 2 (UniProt Q15642), for which the log2 fold change is inactive: 0.019.

Consider TRIR (UniProt Q9BQ61), for which the log2 fold change is inactive: 0.04.

With TRUB1 (UniProt Q8WWH5), the log2 fold change was inactive: 0.012.

Take TRMT61A (UniProt Q96FX7): the log2 fold change was inactive: 0.007.

Consider TRAF3 (UniProt Q13114), for which the log2 fold change was inactive: -0.023.

As to TSEN15 (UniProt Q8WW01), the log2 fold change is inactive: 0.006.

In the case of TRMT112 (UniProt Q9UI30), the log2 fold change is inactive: -0.059.

As to TRMU (UniProt O75648), the log2 fold change is inactive: 0.009.

For the target TSPAN13 (UniProt O95857), the log2 fold change is inactive: 0.008.

For TRAPPC13 isoform 4 (UniProt A5PLN9), the log2 fold change was inactive: 0.032.

On to TRAPPC4 (UniProt Q9Y296), for which the log2 fold change was inactive: -0.014.

On to TTC12 isoform 2 (UniProt Q9H892), for which the log2 fold change is inactive: -0.037.

Compound in another test: C1=CC=C2C(=C1)C3=NNC4=CC=CC(=C43)C2=O
Described as above. A digest of the protocol:
as §1
With TSSC4 (UniProt Q9Y5U2), the log2 fold change is inactive: 0.

With TRIM44 (UniProt Q96DX7), the log2 fold change is inactive: -0.038.

With TRMT12 (UniProt Q53H54), the log2 fold change is inactive: -0.047.

For the target TTC9C (UniProt Q8N5M4), the log2 fold change is inactive: -0.017.

As to TRMT11 (UniProt Q7Z4G4), the log2 fold change is inactive: 0.059.

Take TRAPPC6B (UniProt Q86SZ2): the log2 fold change is inactive: -0.01.

On to TRIM38 (UniProt O00635), for which the log2 fold change is inactive: 0.018.

With TRMT10A (UniProt Q8TBZ6), the log2 fold change was active: 0.252.

Turning to TSN (UniProt Q15631), the log2 fold change was inactive: -0.024.

For TRAPPC9 isoform 2 (UniProt Q96Q05), the log2 fold change is inactive: -0.005.

On to TTLL12 (UniProt V9GY16), for which the log2 fold change was inactive: -0.072.

Consider TTC7B isoform 2 (UniProt Q86TV6), for which the log2 fold change is inactive: 0.021.

TSPO (UniProt P30536): the log2 fold change is inactive: -0.057.

As for TRAPPC6A isoform 2 (UniProt O75865), the log2 fold change is inactive: -0.005.

With TTC27 (UniProt Q6P3X3), the log2 fold change was inactive: -0.028.

On to TSC22D1 (UniProt Q15714), for which the log2 fold change was inactive: 0.03.

With TSFM (UniProt P43897), the log2 fold change is inactive: -0.063.

On to TRNAU1AP (UniProt Q9NX07), for which the log2 fold change is inactive: -0.31.

As to TRIM4 (UniProt Q9C037), the log2 fold change is inactive: 0.043.

For the target TRMT6 (UniProt Q9UJA5), the log2 fold change is inactive: -0.001.

As to TRMT1L (UniProt Q7Z2T5), the log2 fold change was inactive: -0.015.

With TRIM11 (UniProt Q96F44), the log2 fold change was inactive: -0.032.

As to TRPC4AP (UniProt Q8TEL6), the log2 fold change was inactive: 0.031.

Turning to TRAPPC12 (UniProt Q8WVT3), the log2 fold change was inactive: -0.061.

As to TSC1 (UniProt Q92574), the log2 fold change was inactive: 0.058.

On to TTMP isoform 3 (UniProt Q5BVD1), for which the log2 fold change was inactive: -0.08.

As for TTI2 (UniProt Q6NXR4), the log2 fold change was inactive: -0.015.

In the case of TRRAP (UniProt Q9Y4A5), the log2 fold change is inactive: -0.052.

As for TRIP10 isoform 2 (UniProt Q15642), the log2 fold change is inactive: 0.035.

For the target TRIR (UniProt Q9BQ61), the log2 fold change was inactive: -0.01.

As to TRUB1 (UniProt Q8WWH5), the log2 fold change is inactive: 0.007.

Consider TRMT61A (UniProt Q96FX7), for which the log2 fold change is inactive: -0.016.

Regarding TRAF3 (UniProt Q13114), the log2 fold change is inactive: 0.032.

For TSEN15 (UniProt Q8WW01), the log2 fold change is inactive: -0.036.

As to TRMT112 (UniProt Q9UI30), the log2 fold change was inactive: -0.024.

For TRMU (UniProt O75648), the log2 fold change is inactive: -0.036.

As for TSPAN13 (UniProt O95857), the log2 fold change was inactive: -0.167.

For TRAPPC13 isoform 4 (UniProt A5PLN9), the log2 fold change was inactive: 0.021.

TRAPPC4 (UniProt Q9Y296): the log2 fold change was inactive: -0.055.

Consider TTC12 isoform 2 (UniProt Q9H892), for which the log2 fold change is inactive: -0.019.

Compound in a further test: C1CCN(C1)C(=O)NC2=CC=CC(=C2)NC3=NC=C(C(=N3)NCCC4=CN=CN4)Br
The description is as above. In short, it runs like this:
as §1
On to TSSC4 (UniProt Q9Y5U2), for which the log2 fold change was inactive: 0.045.

For the target TRIM44 (UniProt Q96DX7), the log2 fold change was inactive: 0.053.

For TRMT12 (UniProt Q53H54), the log2 fold change was inactive: -0.064.

On to TTC9C (UniProt Q8N5M4), for which the log2 fold change was inactive: 0.

In the case of TRMT11 (UniProt Q7Z4G4), the log2 fold change was inactive: 0.014.

In the case of TRAPPC6B (UniProt Q86SZ2), the log2 fold change is inactive: -0.01.

With TRIM38 (UniProt O00635), the log2 fold change is inactive: 0.053.

As for TRMT10A (UniProt Q8TBZ6), the log2 fold change was inactive: -0.017.

For the target TSN (UniProt Q15631), the log2 fold change is inactive: 0.022.

With TRAPPC9 isoform 2 (UniProt Q96Q05), the log2 fold change was inactive: 0.027.

Regarding TTLL12 (UniProt V9GY16), the log2 fold change is inactive: -0.167.

For TTC7B isoform 2 (UniProt Q86TV6), the log2 fold change was inactive: 0.014.

On to TSPO (UniProt P30536), for which the log2 fold change is inactive: -0.05.

Regarding TRAPPC6A isoform 2 (UniProt O75865), the log2 fold change was inactive: 0.154.

Turning to TTC27 (UniProt Q6P3X3), the log2 fold change was inactive: -0.015.

TSC22D1 (UniProt Q15714): the log2 fold change was inactive: -0.008.

As for TSFM (UniProt P43897), the log2 fold change was inactive: 0.024.

In the case of TRNAU1AP (UniProt Q9NX07), the log2 fold change is inactive: -0.071.

Consider TRIM4 (UniProt Q9C037), for which the log2 fold change was inactive: -0.087.

On to TRMT6 (UniProt Q9UJA5), for which the log2 fold change was inactive: -0.001.

As for TRMT1L (UniProt Q7Z2T5), the log2 fold change is inactive: -0.024.

TRIM11 (UniProt Q96F44): the log2 fold change was inactive: -0.046.

TRPC4AP (UniProt Q8TEL6): the log2 fold change was inactive: 0.03.

As to TRAPPC12 (UniProt Q8WVT3), the log2 fold change is inactive: -0.003.

TSC1 (UniProt Q92574): the log2 fold change is inactive: 0.049.

Regarding TTMP isoform 3 (UniProt Q5BVD1), the log2 fold change is inactive: -0.05.

Regarding TTI2 (UniProt Q6NXR4), the log2 fold change is inactive: -0.028.

As to TRRAP (UniProt Q9Y4A5), the log2 fold change was inactive: -0.02.

Turning to TRIP10 isoform 2 (UniProt Q15642), the log2 fold change was inactive: 0.011.

Regarding TRIR (UniProt Q9BQ61), the log2 fold change was inactive: 0.003.

TRUB1 (UniProt Q8WWH5): the log2 fold change is inactive: -0.017.

As for TRMT61A (UniProt Q96FX7), the log2 fold change was inactive: 0.021.

With TRAF3 (UniProt Q13114), the log2 fold change was inactive: -0.118.

For TSEN15 (UniProt Q8WW01), the log2 fold change is inactive: 0.016.

In the case of TRMT112 (UniProt Q9UI30), the log2 fold change is inactive: -0.044.

On to TRMU (UniProt O75648), for which the log2 fold change is inactive: 0.017.

In the case of TSPAN13 (UniProt O95857), the log2 fold change was inactive: 0.202.

Take TRAPPC13 isoform 4 (UniProt A5PLN9): the log2 fold change is inactive: -0.026.

For the target TRAPPC4 (UniProt Q9Y296), the log2 fold change is inactive: -0.008.

Consider TTC12 isoform 2 (UniProt Q9H892), for which the log2 fold change was inactive: -0.006.
